According to article PMC4868535, “A G-protein activation cascade from Arl13B to Arl3 and implications for ciliary targeting of lipidated proteins” (eLife, 2015):
These are yes or no findings as the source states them, for the method shown. For some of these results: Binding seen in cells or lysates may run through a third protein. Some results given as binding are weak or reduced against the parent protein; the word gives no strength.

Protein sequences, listed by entry. Tags and fused reporters are not part of them. Lines headed by an entry give the natural chain unless they say otherwise; changes in a name come on top. Chains listed by the source or under a name are the forms on record and can include a tag or linker. Residues count along the entry.
UniProt Q9WUL7: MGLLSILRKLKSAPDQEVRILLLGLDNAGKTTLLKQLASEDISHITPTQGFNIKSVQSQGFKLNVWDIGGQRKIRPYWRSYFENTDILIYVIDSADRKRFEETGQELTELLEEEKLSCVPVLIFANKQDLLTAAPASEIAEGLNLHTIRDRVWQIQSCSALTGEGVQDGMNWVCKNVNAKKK
Arl3△N^D129N (murine Arl3 residues 17–182, D129N) (Q9WUL7, form named): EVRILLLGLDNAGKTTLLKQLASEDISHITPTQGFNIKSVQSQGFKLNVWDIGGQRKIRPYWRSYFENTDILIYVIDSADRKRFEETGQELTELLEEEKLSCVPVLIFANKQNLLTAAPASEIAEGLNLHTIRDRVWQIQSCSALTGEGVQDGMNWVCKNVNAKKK
Arl2△N^D128N (murine Arl2 residues 17–184, D128N) (Q9D0J4, form named): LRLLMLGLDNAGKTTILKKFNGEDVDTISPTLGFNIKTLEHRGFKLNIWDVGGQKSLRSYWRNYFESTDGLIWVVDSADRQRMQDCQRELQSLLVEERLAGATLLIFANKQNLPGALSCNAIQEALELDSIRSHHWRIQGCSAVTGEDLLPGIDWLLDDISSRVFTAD
UniProt P36405: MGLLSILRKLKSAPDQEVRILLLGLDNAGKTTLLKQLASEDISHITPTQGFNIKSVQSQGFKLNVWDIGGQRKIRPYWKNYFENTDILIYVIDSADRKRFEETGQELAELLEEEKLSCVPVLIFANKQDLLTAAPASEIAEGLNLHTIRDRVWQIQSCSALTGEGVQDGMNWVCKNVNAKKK
UniProt Q640N2, residues 1-270: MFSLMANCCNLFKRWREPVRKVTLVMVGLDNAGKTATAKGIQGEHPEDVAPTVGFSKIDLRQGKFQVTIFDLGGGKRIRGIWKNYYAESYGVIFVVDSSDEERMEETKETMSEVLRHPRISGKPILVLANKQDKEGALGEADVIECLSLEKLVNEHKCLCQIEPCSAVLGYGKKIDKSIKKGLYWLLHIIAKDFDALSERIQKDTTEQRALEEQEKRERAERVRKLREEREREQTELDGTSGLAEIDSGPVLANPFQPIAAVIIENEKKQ

What was measured:
[1] = target: GST-PDE6δ (UniProt O43924); test: pull-down; 50 µg GST-PDE6δ on 50 µl glutathione agarose, cleared lysates of HEK293 or IMCD3 cells (with or without overexpressed Arl13B-GFP, serum withdrawn 30 hr), 45 min at 4°C; immunoblot with anti-Arl3 or anti-Flag; only the target purified
[2] = target: Arl3△N^D129N (murine Arl3 residues 17–182, D129N) (mouse) (UniProt Q9WUL7); test: two-hybrid; library screens: mouse retina cDNA library in pGADT7 (S. cerevisiae Y187) against pBD-Gal4 baits (S. cerevisiae AH109); growth on selective media
[3] = target: Arl2△N^D128N (murine Arl2 residues 17–184, D128N) (mouse) (UniProt Q9D0J4); test: two-hybrid; directed 1:1 test of pBD baits with pAD preys; mated cells on -Leu -Trp, high stringency plates (-Leu -Trp -His -Ade) and β-galactosidase filter assay
[4] = target: Arl3△N^D129N (murine Arl3 residues 17–182, D129N) (mouse) (UniProt Q9WUL7); test: as above
[5] = target: T1, Arl6△N^D133N (murine Arl6 residues 16–186, D133N) (mouse) (UniProt O88848); test: as above
T1 sequence: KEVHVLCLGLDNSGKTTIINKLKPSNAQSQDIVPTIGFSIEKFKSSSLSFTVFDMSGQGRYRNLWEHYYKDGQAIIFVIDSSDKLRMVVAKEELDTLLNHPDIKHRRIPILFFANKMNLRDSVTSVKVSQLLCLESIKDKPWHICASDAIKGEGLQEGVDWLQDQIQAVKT

Row | binding [1] | binding [2] | binding [3] | binding [4] | binding [5] | Substance
1 | binds | – | – | – | – | endogenous Arl3 (HEK293) (from UniProt P36405 1-182)
2 | binds | – | – | – | – | Arl3-Flag (from UniProt Q9WUL7 1-182)
3 | – | binds | no binding | binds | no binding | Arl13B (residues 1–270) (from UniProt Q640N2 1-270) (domain or fragment)
4 | binds | – | – | – | – | endogenous Arl3 (IMCD3) (from UniProt Q9WUL7 1-182)
